The source of these data is PubChem BioAssay AID1487 (National Center for Advancing Translational Sciences (NCATS), 2009).

“And” between values parts separate entries of the source, which are not always exact repeats. Identical values can stand only once. The list shows a part of the results. Shown are side measurements of this screen, not its main read-out; they come without a call. Compounds called inactive in the main read-out are mostly missing here. The note in brackets gives the kind of curve behind each potency; many fits are weak.

The nature of this experiment: qHTS Assay for Modulators of Lamin A Splicing. Particulars: HeLa LMNA splicing GFP/RFP minigene ratio, 48 h. The gist of the method:
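Read-out is the ratio of GFP to DsRed2 object intensity, acquired by 488 nm laser-scanning cytometry on HeLa lamin A-EGFP minigene reporter cells. Compound incubation 48 hrs at 37 °C in Opti-MEM with 2% FBS; DMSO 0.5% final.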
On the technique in general: qHTS replaces the single test concentration by a dilution series.

The mark [1] stands for this setting: measured here: GFP splicing reporter channel.
Where [2] appears, read: measured here: RFP viability control channel.

For orientation: AC50 means the concentration at which the activity in the assay is half-maximal. In the case of `CCCN1C[C@H](CSC)C[C@@H]2c3cccc4[nH]cc(c34)C[C@H]21`, the AC50 under setting [1] was 562 nM [falling, full curve] and 35.5 µM [rising, single point].

Turning to `COc1cc(SC)ccc1C(=O)Nc1ncc(C)s1`, the AC50 under setting [2] was 25.1 µM [falling, partial curve, poor fit].

For the compound `O=C(Cn1nc(C(F)F)cc1C(F)F)NNC(=S)Nc1ccc([N+](=O)[O-])cc1`, under setting [2], the AC50 was 0.0708 µM [falling, full curve].

Regarding `CCc1c(C#N)c(SCCC(=O)Nc2ccc(C)cc2)nc2c1C(=O)CC(C)(C)C2`, the AC50 under setting [1] is 5.62 µM [falling, single point].

As to `Cc1ccc(NS(=O)(=O)c2ccc3c(c2)CCCN3C(=O)C2CCC2)cc1Cl`, under setting [2], the AC50 is 11.2 µM [rising, single point].

As for `O=C(Cn1nc(CNc2ccc(Cl)cc2)[n+]2c1CCCCC2)c1ccc(Cl)cc1`, under setting [2], the AC50 is 35.5 µM [rising, single point].

Consider `O=[N+]([O-])/C=C/c1cn(Cc2ccc(Cl)cc2)c2ccccc12`, for which, under setting [1], the AC50 is 35.5 µM [falling, single point].

With `COc1ccc(C2c3c(C)nn(-c4ccccc4)c3NC(=O)N2c2ccccc2)cc1` (configuration not stated), the AC50 under setting [2] was 12.6 µM [rising, partial curve, poor fit].

For `COC(=O)[C@H](C)[C@@H]1C[C@@]1(C)[C@@H](NC(=O)OCc1ccccc1)c1ccccc1`, the AC50 runs as follows: under setting [1], 35.5 µM [rising, single point]; under setting [2], 35.5 µM [rising, partial curve, poor fit].

On to `CCOC(=O)C1=C(O)C(=O)N(Cc2cccnc2)C1c1ccc(OC)cc1` (configuration not stated), for which the AC50 under setting [1] is 35.5 µM [falling, single point].

`Cc1ccc(CSc2nc3ccsc3c(=O)n2Cc2ccccn2)cc1`: the AC50 under setting [1] was 12.6 µM [rising, single point] and the AC50 under setting [2] was 28.2 µM [rising, single point].

As to `CO/N=C/c1ccc(N2CCN(C(=O)c3ccc(F)cc3)CC2)c([N+](=O)[O-])c1`, the AC50 under setting [2] is 12.6 µM [rising, single point].

Take `C=C1CC23C[C@H]4[C@@H]5[C@@]6(C)C[C@H](OC(=O)c7ccccc7)[C@@H](OC(C)=O)[C@]57[C@@H]2[C@@H](OC(C)=O)[C@H]1[C@@H](O)[C@H]3[C@H]7N4C6`: the AC50 runs as follows: under setting [1], 0.224 µM [falling, full curve]; under setting [2], 8.91 µM [falling, single point].

`CCOc1ccccc1NS(=O)(=O)c1ccc(-c2cnc(C3CC3)o2)cc1`: the AC50 under setting [2] is 0.224 µM [rising, full curve].

As to `COC(=O)c1c(C)oc2ccc(N(C(=O)c3ccncc3)S(=O)(=O)c3ccc(C)cc3)cc12`, the AC50 under setting [2] was 4.47 µM [rising, full curve].

`CN(CCOc1cccc(C(F)(F)F)c1)Cc1ccccc1`: the AC50 under setting [1] is 0.01 µM [rising, full curve, poor fit].

As for `COc1cccc(CSc2nc3sc(C)c(C)c3c(=O)n2Cc2ccco2)c1`, the AC50 runs as follows: under setting [1], 11.2 µM [rising, partial curve, poor fit]; under setting [2], 15.8 µM [rising, partial curve].

In the case of `CC(=O)C1=NN(c2ccccc2)C(c2ccc3c(c2)OCO3)N1c1ccc(N2CCOCC2)cc1` (configuration not stated), the AC50 by setting is: under setting [1], 14.1 µM [rising, partial curve]; under setting [2], 0.794 µM [rising, single point].

On to `CCOc1nc(Nc2ccc([N+](=O)[O-])cc2)nc(NC(C)(C)C)n1`, for which the AC50 under setting [2] was 12.6 µM [rising, partial curve].

Turning to `O=C(N/N=C/C=C/c1ccccc1[N+](=O)[O-])c1cc(-c2ccccc2)n[nH]1`, the half-maximal activity concentration (AC50) is, setting by setting: under setting [1], 0.0355 µM [falling, full curve, poor fit]; under setting [2], 0.0562 µM [falling, full curve, poor fit].

In the case of `CCCCOC(=O)C1=C(C)Nc2nnnn2C1c1ccccc1Cl` (configuration not stated), under setting [2], the AC50 is 17.8 µM [rising, single point].

Regarding `COC(=O)c1c(NC(=O)CN2CCCc3ccccc32)sc(C)c1C`, the AC50 reads like this: under setting [1], 7.08 µM [rising, full curve, poor fit]; under setting [2], 11.2 µM [rising, partial curve].

On to `COc1ccc(-c2n[nH]c(C)c2-c2ccc(OC)c(OC)c2)c(O)c1`, for which the AC50 under setting [1] is 17.8 µM [rising, single point] and the AC50 under setting [2] is 15.8 µM [rising, single point].

Take `O=c1c(N2CCc3ccccc3C2)csc2ccccc12`: the AC50 was 11.2 µM [rising, partial curve, poor fit] under setting [1] and 35.5 µM [rising, single point] under setting [2].

Take `COc1ccc(Cn2nnnc2C(C(C)C)N2CCN(c3ccccc3OC)CC2)cc1` (configuration not stated): the AC50 under setting [2] was 17.8 µM [rising, single point].

With `CC(=O)C1=NN(c2ccccc2)C(c2cccs2)N1c1ccc(N(C)C)cc1` (configuration not stated), under setting [2], the AC50 is 3.16 µM [rising, single point].

For `CC(C)(C)C(=O)Cn1c(=N)n(Cc2ccccc2)c2ccccc21`, the AC50 is 31.6 µM [rising, single point] under setting [1] and 31.6 µM [rising, single point] under setting [2].

`CCOC(=O)c1c(Cc2ccc(Cl)cc2)c[nH]c1C`: under setting [2], the AC50 is 15.8 µM [rising, single point].

On to `Cc1onc(-c2ccccc2Cl)c1C(=O)N1CCc2ccccc2C1`, for which the AC50 is 22.4 µM [rising, single point] under setting [1] and 35.5 µM [rising, single point] under setting [2].

`O=C(NC(c1ccc(Cl)cc1)c1c(O)ccc2ccccc12)c1ccccc1` (configuration not stated): under setting [1], the AC50 is 25.1 µM [falling, single point].

With `CCCOC1CCCN(C(=O)CCc2nnc(CCCCc3ccccc3)o2)C1` (configuration not stated), the AC50 reads like this: under setting [1], 1.26 µM [falling, full curve]; under setting [2], 0.0224 µM [falling, full curve, poor fit].

On to `Cc1c(C(=O)OC2CCCC2)[nH]c2c1C(=O)CC(c1ccco1)C2` (configuration not stated), for which the AC50 under setting [1] is 3.16 µM [rising, single point] and the AC50 under setting [2] is 1.26 µM [rising, full curve].

As for `COCCCNC(=O)c1ccc2c(=O)n(Cc3ccc(OC)cc3)c(=O)[nH]c2c1`, the AC50 under setting [1] is 0.447 µM [rising, full curve, poor fit].

Regarding `CCOc1ccc(C(O)c2nccn2Cc2ccccc2)cc1` (configuration not stated), under setting [2], the AC50 was 35.5 µM [rising, single point].

In the case of `COc1cc([N+](=O)[O-])ccc1NC(=S)NC(=O)CC(C)(C)C`, the AC50 under setting [1] was 1.58 µM [rising, full curve, poor fit].

`Cc1c(C(=O)NCc2cccs2)oc2ccc(Br)cc12`: the AC50 under setting [2] was 7.94 µM [rising, partial curve, poor fit].

Turning to `CC(C)CC(c1nnnn1C1CCCCC1)N1CCN(c2ncccn2)CC1` (configuration not stated), the AC50 under setting [2] was 0.282 µM [falling, full curve, poor fit].

Take `CSc1ccc2c(c1)C(N1CCN(C)CC1)Cc1ccccc1S2` (configuration not stated): the AC50 is 7.08 µM [falling, full curve, poor fit] under setting [1]; 178 nM [falling, full curve, poor fit] and 7.94 µM [falling, partial curve, poor fit] under setting [2].

For the compound `CCCCN1C(=O)/C(=C/C=C2/CC(C)(C)CN2C)SC1=S`, the AC50 under setting [1] is 20 µM [falling, partial curve].

As for `O=C(Nc1ccc(OC(F)F)c(Cl)c1)Nc1ccc2c(c1)OCO2`, the half-maximal activity concentration (AC50) under setting [2] was 14.1 µM [rising, single point].

Consider `Cc1ccc(S(=O)(=O)C(CNC(=O)c2ccccc2F)c2cccs2)cc1` (configuration not stated), for which the AC50 under setting [1] was 0.794 µM [rising, full curve].

In the case of `Cc1sc(NC(=O)c2ccccc2)c(C(c2ccccn2)N2CCN(CCO)CC2)c1C` (configuration not stated), the AC50 under setting [2] was 17.8 µM [rising, single point].

`Cc1ccc(C(=O)N2CCCC(C(=O)c3ccc(Oc4ccccc4)cc3)C2)cn1` (configuration not stated): the AC50 under setting [1] is 3.98 µM [falling, full curve, poor fit] and the AC50 under setting [2] was 35.5 µM [falling, single point].

Take `CC(C)Oc1ccc(Cc2n[nH]c(=S)n2Cc2ccccc2)cc1Cl`: under setting [2], the AC50 was 10 µM [rising, partial curve, poor fit].

Regarding `O=C(c1ccncc1)N(c1ccc2oc3c(c2c1)CCCC3)S(=O)(=O)c1cccc([N+](=O)[O-])c1`, the AC50 under setting [2] was 12.6 µM [rising, partial curve].

With `Cn1cnc([N+](=O)[O-])c1Oc1ccccc1`, the AC50 under setting [2] is 14.1 µM [rising, single point].

On to `COc1ccc2[nH]cc(C(=O)CCl)c2c1`, for which, under setting [2], the AC50 is 5.62 µM [falling, partial curve].

With `CC(=O)c1sc(NC(=O)c2cc(-c3ccccc3)nn2-c2ccccc2)nc1C`, the AC50 by setting is: under setting [1], 7.08 µM [rising, partial curve]; under setting [2], 7.08 µM [rising, partial curve].

As to `Cc1ccc(N(CCCCN2C(=O)c3ccccc3C2=O)C(=O)c2cccs2)cc1`, under setting [2], the AC50 is 11.2 µM [falling, partial curve, poor fit].

Consider `Cn1c(=O)c2c(nc(NCc3ccc4c(c3)OCO4)n2Cc2ccccc2)n(C)c1=O`, for which the AC50 under setting [2] is 35.5 µM [rising, single point].

As to `O=C(NC(C(=O)N/N=C/c1cccc2ccccc12)c1n[nH]c(=O)c2ccccc12)c1ccccc1` (configuration not stated), the AC50 is 3.55 µM [rising, partial curve] under setting [1] and 3.55 µM [rising, single point] under setting [2].

Consider `COc1cc(/C=N/NC(=O)CN(Cc2ccccc2)S(=O)(=O)c2ccc3c(c2)OCCO3)ccc1O`, for which the AC50 under setting [2] was 7.08 µM [rising, partial curve].

Take `O=C(N/N=C/c1ccco1)c1ccccc1OCc1ccc(Br)cc1`: the AC50 runs as follows: under setting [1], 11.2 µM [rising, partial curve, poor fit]; under setting [2], 17.8 µM [rising, single point].

For the compound `O=C(Nc1nccs1)C1(c2ccc(Cl)cc2)CC1`, under setting [2], the AC50 is 1.26 µM [falling, full curve, poor fit].
